Results are given in words; binding and its absence hold for the method and conditions named. Some results given as binding are weak or reduced against the parent protein; the word gives no strength.
Target: T1, recombinant VCAM-1 (commercial preparation, R & D Systems), immobilized (UniProt P19320)
T1 sequence (looked up): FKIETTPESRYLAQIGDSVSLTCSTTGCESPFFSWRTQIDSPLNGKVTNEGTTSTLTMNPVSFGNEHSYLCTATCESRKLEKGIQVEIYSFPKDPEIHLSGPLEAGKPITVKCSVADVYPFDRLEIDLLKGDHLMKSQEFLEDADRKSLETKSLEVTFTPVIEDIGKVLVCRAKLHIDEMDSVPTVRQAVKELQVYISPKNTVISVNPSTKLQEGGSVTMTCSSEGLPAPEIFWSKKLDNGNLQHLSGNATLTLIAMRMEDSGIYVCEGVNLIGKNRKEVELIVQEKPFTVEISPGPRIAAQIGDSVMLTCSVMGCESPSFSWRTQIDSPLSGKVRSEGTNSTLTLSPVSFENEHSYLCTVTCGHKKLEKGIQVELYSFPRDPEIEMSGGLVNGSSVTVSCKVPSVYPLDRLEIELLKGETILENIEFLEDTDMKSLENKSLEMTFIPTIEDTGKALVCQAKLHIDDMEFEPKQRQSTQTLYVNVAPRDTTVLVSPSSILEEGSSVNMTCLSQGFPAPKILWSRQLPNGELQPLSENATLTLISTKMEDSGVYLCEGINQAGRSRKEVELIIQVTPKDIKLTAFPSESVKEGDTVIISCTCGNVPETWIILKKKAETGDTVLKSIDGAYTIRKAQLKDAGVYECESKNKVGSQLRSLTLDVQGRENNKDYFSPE
Assay: eosinophil adhesion assays

By UniProt entry, the sequences of proteins in these tests, tags left out. Where a name states a change or a piece, a line headed by the entry shows the natural chain unless it says otherwise.
UniProt Q13349: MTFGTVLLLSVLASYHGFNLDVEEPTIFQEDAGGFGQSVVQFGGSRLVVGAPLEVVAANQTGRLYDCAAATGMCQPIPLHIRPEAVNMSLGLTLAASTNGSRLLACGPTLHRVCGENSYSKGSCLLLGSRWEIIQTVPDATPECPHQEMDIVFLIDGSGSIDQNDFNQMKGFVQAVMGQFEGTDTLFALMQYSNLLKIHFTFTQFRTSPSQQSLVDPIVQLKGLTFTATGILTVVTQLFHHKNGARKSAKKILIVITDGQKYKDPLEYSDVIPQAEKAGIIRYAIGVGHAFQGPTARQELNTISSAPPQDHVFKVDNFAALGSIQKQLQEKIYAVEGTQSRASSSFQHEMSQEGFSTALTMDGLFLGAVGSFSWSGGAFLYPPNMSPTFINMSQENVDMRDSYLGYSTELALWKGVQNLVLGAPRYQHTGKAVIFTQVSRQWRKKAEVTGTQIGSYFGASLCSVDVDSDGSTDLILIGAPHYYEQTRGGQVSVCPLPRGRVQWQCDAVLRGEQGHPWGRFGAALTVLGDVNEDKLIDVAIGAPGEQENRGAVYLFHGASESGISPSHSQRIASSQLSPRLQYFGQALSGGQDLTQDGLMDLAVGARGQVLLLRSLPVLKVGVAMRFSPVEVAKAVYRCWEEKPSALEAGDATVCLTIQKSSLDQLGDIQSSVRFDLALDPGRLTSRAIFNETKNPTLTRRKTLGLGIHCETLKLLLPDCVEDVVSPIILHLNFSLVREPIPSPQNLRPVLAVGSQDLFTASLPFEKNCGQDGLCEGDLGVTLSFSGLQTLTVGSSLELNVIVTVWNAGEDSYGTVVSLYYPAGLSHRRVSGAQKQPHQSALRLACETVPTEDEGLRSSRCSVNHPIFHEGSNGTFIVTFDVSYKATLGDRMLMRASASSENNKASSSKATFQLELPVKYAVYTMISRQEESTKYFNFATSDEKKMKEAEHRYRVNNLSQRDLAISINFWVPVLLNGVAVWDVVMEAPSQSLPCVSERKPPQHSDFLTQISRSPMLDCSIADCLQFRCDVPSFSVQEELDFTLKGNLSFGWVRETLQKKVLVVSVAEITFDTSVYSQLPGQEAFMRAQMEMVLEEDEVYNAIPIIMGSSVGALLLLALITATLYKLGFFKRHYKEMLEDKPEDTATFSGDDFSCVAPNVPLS

binding: binds
Substance: native human αd/CD18 on human leukocytes and myeloid cell lines (from UniProt Q13349 18-1161; P05107 23-769) (receptor; other documents disagree on this pair)

From patent US20020062008A1
